Measurements as given in patent US8666675B2, “Computer method and system for predicting physical properties using a conceptual segment model” (Aspen Technology, Inc., priority 2004, dated 2014).

Test: Solvent characteristics (hydrophobic / polar / hydrophilic / complex)
Format: physicochemical
Source text: […] conceptual segments were defined for nonelectrolyte molecules: a hydrophobic segment, a polar segment, a hydrophilic segment and a solvation segment. These conceptual segments qualitatively capture the phase behavior of real molecules and their corresponding segments. Real molecules in turn are used as reference molecules for the conceptual segments and available phase equilibrium data of these reference molecules are used to identify NRTL binary parameters for the conceptual segments. […] The study was focused on the 59 ICH solvents used in pharmaceutical process design. Water, triethylamine, and n-octanol were also considered.
Hydrocarbon solvents (aliphatic or aromatic), halogenated hydrocarbons, and ethers are mainly hydrophobic. Ketones, esters and amides are both hydrophobic and polar. Alcohols, glycols, and amines may have both substantial hydrophilicity and hydrophobicity. Acids are complex, with hydrophilicity, polarity, and hydrophobicity.

CC(=O)N(C)C [N,N-Dimethylacetamide]
Solvent characteristics: Polar
